Test results as given in publication PMC3757036.
These are yes or no findings as the source states them, for the method shown. Binding seen in cells or lysates may run through a third protein. Some binding calls cover weakened binding; strength is not graded here.

Protein sequences, listed by entry. Tags and fused reporters are not part of them.
UniProt Q9D752: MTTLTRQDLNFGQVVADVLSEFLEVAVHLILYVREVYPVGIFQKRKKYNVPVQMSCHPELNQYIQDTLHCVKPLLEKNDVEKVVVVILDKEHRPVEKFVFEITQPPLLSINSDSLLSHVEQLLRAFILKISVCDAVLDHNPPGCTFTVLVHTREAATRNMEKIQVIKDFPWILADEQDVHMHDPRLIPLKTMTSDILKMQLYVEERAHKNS
UniProt Q5DW34: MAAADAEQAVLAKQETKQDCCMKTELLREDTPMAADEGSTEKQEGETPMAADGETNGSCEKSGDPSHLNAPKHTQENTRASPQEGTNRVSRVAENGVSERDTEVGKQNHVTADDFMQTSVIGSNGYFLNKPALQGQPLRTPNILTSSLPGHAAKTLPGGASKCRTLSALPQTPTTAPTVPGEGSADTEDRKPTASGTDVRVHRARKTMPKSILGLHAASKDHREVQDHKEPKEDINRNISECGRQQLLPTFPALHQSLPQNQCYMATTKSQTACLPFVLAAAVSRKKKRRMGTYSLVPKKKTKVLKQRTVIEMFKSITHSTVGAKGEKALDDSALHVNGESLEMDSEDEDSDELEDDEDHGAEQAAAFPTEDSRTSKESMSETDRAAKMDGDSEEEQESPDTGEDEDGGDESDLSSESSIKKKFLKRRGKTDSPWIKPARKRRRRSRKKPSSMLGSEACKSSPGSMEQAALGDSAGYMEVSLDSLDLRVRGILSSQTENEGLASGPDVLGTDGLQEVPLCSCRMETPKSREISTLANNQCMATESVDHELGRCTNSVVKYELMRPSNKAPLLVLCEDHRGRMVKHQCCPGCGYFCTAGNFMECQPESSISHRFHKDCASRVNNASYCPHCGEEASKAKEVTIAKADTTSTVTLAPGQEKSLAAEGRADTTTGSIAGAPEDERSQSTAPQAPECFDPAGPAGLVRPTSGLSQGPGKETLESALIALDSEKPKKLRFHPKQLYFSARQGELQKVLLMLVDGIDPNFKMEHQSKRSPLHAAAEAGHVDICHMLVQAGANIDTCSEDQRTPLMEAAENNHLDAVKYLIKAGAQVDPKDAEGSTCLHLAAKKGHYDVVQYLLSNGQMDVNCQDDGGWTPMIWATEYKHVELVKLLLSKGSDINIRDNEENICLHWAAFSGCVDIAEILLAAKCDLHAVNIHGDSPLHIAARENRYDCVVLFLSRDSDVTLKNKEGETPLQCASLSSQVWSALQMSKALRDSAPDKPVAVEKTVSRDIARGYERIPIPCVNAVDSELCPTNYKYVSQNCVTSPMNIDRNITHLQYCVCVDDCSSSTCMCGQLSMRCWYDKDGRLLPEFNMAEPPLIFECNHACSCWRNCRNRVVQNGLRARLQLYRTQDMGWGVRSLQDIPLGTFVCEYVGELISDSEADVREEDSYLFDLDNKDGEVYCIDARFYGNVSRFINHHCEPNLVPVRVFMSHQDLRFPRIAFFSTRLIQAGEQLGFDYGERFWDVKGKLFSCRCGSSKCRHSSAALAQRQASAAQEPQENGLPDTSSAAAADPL
UniProt P24860: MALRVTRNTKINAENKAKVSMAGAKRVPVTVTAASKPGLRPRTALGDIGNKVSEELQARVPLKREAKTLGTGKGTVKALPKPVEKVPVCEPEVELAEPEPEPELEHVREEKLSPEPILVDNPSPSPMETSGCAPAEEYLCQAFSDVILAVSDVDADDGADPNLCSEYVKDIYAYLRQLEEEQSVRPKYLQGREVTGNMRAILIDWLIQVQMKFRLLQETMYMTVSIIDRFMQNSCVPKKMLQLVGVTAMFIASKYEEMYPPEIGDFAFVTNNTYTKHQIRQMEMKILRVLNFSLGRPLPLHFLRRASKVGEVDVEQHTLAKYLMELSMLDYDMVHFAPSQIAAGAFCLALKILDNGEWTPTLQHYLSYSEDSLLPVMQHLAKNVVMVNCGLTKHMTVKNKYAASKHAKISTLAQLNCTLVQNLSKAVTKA
UniProt Q9Z148: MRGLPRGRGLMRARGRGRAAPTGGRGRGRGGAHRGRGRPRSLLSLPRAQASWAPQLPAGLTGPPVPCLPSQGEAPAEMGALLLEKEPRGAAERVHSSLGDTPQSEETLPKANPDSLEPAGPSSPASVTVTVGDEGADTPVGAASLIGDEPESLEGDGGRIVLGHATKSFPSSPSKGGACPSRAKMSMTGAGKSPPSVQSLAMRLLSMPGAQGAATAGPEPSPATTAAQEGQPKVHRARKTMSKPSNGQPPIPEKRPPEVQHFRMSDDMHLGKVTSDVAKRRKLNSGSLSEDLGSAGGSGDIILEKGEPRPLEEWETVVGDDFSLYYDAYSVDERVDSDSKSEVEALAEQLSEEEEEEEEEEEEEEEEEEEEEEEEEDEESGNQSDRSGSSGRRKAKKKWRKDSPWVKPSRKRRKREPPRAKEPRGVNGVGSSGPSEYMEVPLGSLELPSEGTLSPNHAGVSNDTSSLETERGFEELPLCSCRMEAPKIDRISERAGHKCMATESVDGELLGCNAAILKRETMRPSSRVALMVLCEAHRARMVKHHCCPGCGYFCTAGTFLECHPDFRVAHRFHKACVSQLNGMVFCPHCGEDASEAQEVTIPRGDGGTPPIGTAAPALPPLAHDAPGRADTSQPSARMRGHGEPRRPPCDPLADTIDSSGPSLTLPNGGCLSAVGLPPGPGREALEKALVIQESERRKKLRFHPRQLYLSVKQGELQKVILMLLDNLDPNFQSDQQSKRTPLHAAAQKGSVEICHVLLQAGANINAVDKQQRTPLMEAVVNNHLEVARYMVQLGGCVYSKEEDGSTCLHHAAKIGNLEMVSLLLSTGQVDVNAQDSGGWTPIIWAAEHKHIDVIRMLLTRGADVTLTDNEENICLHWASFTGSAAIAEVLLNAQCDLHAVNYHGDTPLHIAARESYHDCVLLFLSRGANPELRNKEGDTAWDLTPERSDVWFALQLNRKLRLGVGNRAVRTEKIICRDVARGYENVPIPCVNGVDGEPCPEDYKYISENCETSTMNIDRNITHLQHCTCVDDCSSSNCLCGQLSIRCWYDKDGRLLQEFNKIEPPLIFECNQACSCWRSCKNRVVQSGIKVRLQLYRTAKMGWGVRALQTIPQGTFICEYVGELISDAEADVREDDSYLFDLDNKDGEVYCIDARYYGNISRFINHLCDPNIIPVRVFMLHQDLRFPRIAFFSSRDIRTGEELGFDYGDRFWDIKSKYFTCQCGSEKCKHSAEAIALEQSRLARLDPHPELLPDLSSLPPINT

What was measured:
Test in all cases: co-IP; protein extract of NIH3T3 fibroblasts transfected with HA-Mad2l2; precipitated with antibodies against G9a, GLP, Cdk1, pCdk1, Cyclin B1 or the HA tag, IgG as negative control; immunoblot of the precipitates
HA-Mad2l2 (mouse) = HA-Mad2l2 (mouse) (UniProt Q9D752)
[1] = target: GLP (mouse (endogenous in NIH3T3)) (UniProt Q5DW34)
[2] = target: Cyclin B1 (mouse (endogenous in NIH3T3)) (UniProt P24860)
[3] = target: G9a (mouse (endogenous in NIH3T3)) (UniProt Q9Z148)

binding (HA-Mad2l2 (mouse)) | binding [1] | binding [2] | binding [3] | Substance
binds |  |  |  | G9a (from UniProt Q9Z148 1-1263) (enzyme)
 | binds | no binding | binds | HA-Mad2l2 (from UniProt Q9D752 1-211)
